Assay results reported in paper PMC11729928 (PLOS ONE, 2025).

Test system: CHO-KI CHOP::luciferase cells
Assay: CHOP::luciferase assay
Assay type: cell-based
Details: tunicamycin 3 μg/mL, 6h, read-out: IC50, inhibition of tunicamycin-induced luciferase expression
Experimental: CHO-KI CHOP::luciferase cells (a gift from David Ron, Cambridge University, UK) were cultured in Dulbecco’s modified Eagle medium (DMEM)/F12(Ham) (Gibco) supplemented with 10% fetal bovine serum (Sigma Aldrich), 2 mM L-glutamine (Merck Millipore) and 1% penicillin/streptomycin (Merck Millipore) with 200 μg/mL G418 (Life Technologies). Cells were maintained at 37°C with 5% CO2. Cells were regularly checked for mycoplasma contamination.
Cells were exposed to 3 μg/mL of tunicamycin or vehicle (dimethylsulphoxide, DMSO, Sigma), and treated for 6h with pharmacological compounds at concentrations ranging from 0.1 to 500 μM.
For all treatments the whole culture medium was replaced with fresh medium containing the compounds at the desired final concentrations, with or without addition of tunicamycin; control cells were treated by replacing the culture medium with fresh medium containing the vehicle. At the end of the treatment, cells were processed as follows. […] After 5-min incubation, luciferase activity was measured using the GloMax 96 microplate luminometer (Promega).
TUDCA is a chemical chaperone reported to promote protein folding and alleviate ER stress. […] Thus, we measured the ability of TUDCA to attenuate the luciferase response to tunicamycin in CHOP::luciferase cells. […]

SMILES: O=c1n(CCCN2CCN(c3cccc(Cl)c3)CC2)nc2ccccn12 [Trazodone]
- IC50: 80 µM
